Data reported in the supplement of paper PMC4683952.
The other results are listed elsewhere or left out. Cut-off read from the data, not from the text of the source: active = 2 or more and inactive = the rest. Most values lie within the scatter of the assay; repeated measurements hardly agree.

Tested on: Lgr5 (MarsCy1-Lgr5-EGFP, U2OS)
Experiment: cell-surface Lgr5 expression (SCi1 fluorescence, background-subtracted) relative to WT DMSO (fold of DMSO control); higher = more Lgr5 at the plasma membrane
Conditions: U2OS MarsCy1-Lgr5-EGFP stable; treatment time: overnight; library: ActiProbe-5K (TimTec); 25 µM

Row | Compound | cell-surface Lgr5 expression
1 | Cc1cnc2c(ccc3c(C)c(C)cnc32)c1C | inactive: 0.402
2 | N#Cc1sc(N)c(C#N)c1N | inactive: 1.49
3 | CNC(=S)N1CCCCC1 | inactive: 1.45
4 | CCCCC1NC(C(=O)O)CS1 (stereo not drawn) | inactive: 1.22
5 | CC1CC(NC(=O)NCCCCCCNC(=O)NC2CC(C)CC(C)(C)C2)CC(C)(C)C1 (stereo not drawn) | inactive: 1.18
6 | COc1ccc(N(C)S(=O)(=O)C2CCS(=O)(=O)C2)cc1 (stereo not drawn) | inactive: 1.33
7 | Cc1sc2ccccc2[n+]1CCCS(=O)(=O)[O-] | inactive: 1.27
8 | N#Cc1c(SCC(=O)c2ccc(Cl)s2)sc2c(O)cc(=O)[nH]c12 | inactive: 1.04
9 | O=S(=O)(c1ccccc1)N1CCc2ccccc21 | inactive: 1.2
10 | Cc1cc[n+](Cc2ccccn2)c(N)c1.[Br-] | inactive: 1.54
11 | Clc1ccc2c(SCc3ccon3)ccnc2c1 | inactive: 0.983
12 | O=C1NC(=S)N2C(=O)CCC12 (stereo not drawn) | inactive: 1.3
13 | Clc1nc2ccccc2nc1-c1ccccc1 | inactive: 1.32
14 | CCCOC(=O)C1=C(C)NC2=C(C(=O)CC(C)(C)C2)C1c1ccc(C)o1 (stereo not drawn) | inactive: 1.09
15 | Cc1[nH]c(=O)n(C(C)(C)C)c(=O)c1C | inactive: 1.57
16 | CCOC(=O)N1CCCC1C(=O)O (stereo not drawn) | inactive: 0.975
17 | O=C(N/N=C\c1ccco1)c1cnccn1 | inactive: 0.943
18 | CC1=Nc2ccccc2NC(C)(C)C1 | inactive: 1.17
19 | c1ccc(CSc2nnc(C34CC5CC(CC(C5)C3)C4)o2)nc1 | inactive: 1.28
20 | N#Cc1c(SCC(=O)Nc2nccs2)sc2c(O)cc(=O)[nH]c12 | inactive: 1.38
21 | OC[C@@H]1Cc2ccccc2CN1 | inactive: 1.24
22 | c1cc(CNc2nc(-c3nonc3NC3CC3)no2)ccn1 | inactive: 1.07
23 | C/N=C1\S/C(=C/c2ccc(C)o2)C(=O)N1C | inactive: 1.13

Ordered by molecular weight (low to high): seven of the compounds above
Row | Compound | cell-surface Lgr5 expression
12 | O=C1NC(=S)N2C(=O)CCC12 (stereo not drawn) | inactive: 1.3
16 | CCOC(=O)N1CCCC1C(=O)O (stereo not drawn) | inactive: 0.975
17 | O=C(N/N=C\c1ccco1)c1cnccn1 | inactive: 0.943
1 | Cc1cnc2c(ccc3c(C)c(C)cnc32)c1C | inactive: 0.402
7 | Cc1sc2ccccc2[n+]1CCCS(=O)(=O)[O-] | inactive: 1.27
22 | c1cc(CNc2nc(-c3nonc3NC3CC3)no2)ccn1 | inactive: 1.07
5 | CC1CC(NC(=O)NCCCCCCNC(=O)NC2CC(C)CC(C)(C)C2)CC(C)(C)C1 (stereo not drawn) | inactive: 1.18

Continued:

Row | Compound | cell-surface Lgr5 expression
24 | O=C1C2CC=C(Cl)CC2C(=O)N1CCN1CCCCC1 (stereo not drawn) | inactive: 1.1
25 | O=[N+]([O-])c1cc(/C=N\n2cnnc2)c2c(c1)COCO2 | inactive: 1.02
26 | c1ccc(-n2nnnc2-n2cnc3ccccc32)cc1 | inactive: 1.05
27 | FC(F)(F)c1nnc2c3ccccc3c(-n3ccnc3)nn12 | inactive: 1.27
28 | c1ccc(-c2cnc(-c3cccc4ccccc34)o2)cc1 | inactive: 1.07
29 | CN(C)c1ccc(C(c2ccc(N(C)C)cc2)c2ccc(N(C)C)cc2)cc1 | inactive: 0.119
30 | CN(C)S(=O)(=O)Nc1cccc([N+](=O)[O-])c1 | inactive: 1.08
31 | C=CCC1(CC=C)CNCCN1.Cl.Cl | inactive: 1.5
32 | O=C1NC(=S)S/C1=C/N1CCOCC1 | inactive: 0.81
33 | Cc1nc(-c2nonc2N)no1 | inactive: 1.07
34 | CN(C)CCCN1C(=O)C(O)=C(C(=O)c2cccs2)C1c1ccco1 (stereo not drawn) | inactive: 1.17
35 | CC1=CS(=O)(=O)C(C)=CC1=O | inactive: 0.716
36 | c1ccc(/N=c2\scc(-c3ccccc3)n2-c2ccccc2)cc1 | inactive: 1.6
37 | O=C(c1nsc(Cl)c1Cl)N1CCCCC1 | inactive: 1.55
38 | CCCCCCC/C=C(\Cl)c1c(C)[nH]c(C(=O)OCC)c1C | inactive: 0.802
39 | O=[N+]([O-])c1ccc2nccnc2c1 | inactive: 1.52
40 | O=S(=O)(CCOc1ccccc1)c1nc2ccccc2[nH]1 | inactive: 1.65
41 | O=c1c2n[nH]c3nonc3nc-2c2ccccc12 | inactive: 0.968
42 | OCCNCc1ccco1 | inactive: 1.23
43 | Cn1c(-c2ccccc2Br)n[nH]c1=S | inactive: 1.05
44 | C(=C/c1ccc2c(c1)OCO2)/C=N\c1ccc(N2CCOCC2)cc1 | inactive: 0.976
45 | O=C([O-])COC1CCCCC1c1ccco1 (stereo not drawn) | inactive: 1.3
46 | N#Cc1cc2c([nH]c1=S)CCCC2 | inactive: 1.03

Row | Compound | cell-surface Lgr5 expression
47 | CCC(C)C(=O)Nc1nnc(CC(C)C)s1 (stereo not drawn) | inactive: 1.21
48 | CC(=O)OCC1=C(C(=O)O)N2C(=O)C(NC(=O)C(C)n3cc([N+](=O)[O-])cn3)C2SC1 (stereo not drawn) | inactive: 1.23
49 | COc1cc(OC)c(Br)c(OC)c1 | inactive: 1.07
50 | Cc1ccc(/C=C2\SC(N3CCC(C)CC3)=NC2=O)o1 | inactive: 1.31
51 | CN(C)c1ncnc2[nH]cnc12 | inactive: 1.07
52 | Cc1ccc(C2C3=C(CC(C)(C)CC3=O)OC3=C2C(=O)CC(C)(C)C3)s1 | inactive: 1.45
53 | c1ccc(CNc2nnns2)cc1 | inactive: 1.17
54 | NNC(=O)C(=O)Nc1nccs1 | inactive: 1.07
55 | Sc1nnc(-c2ccco2)n1/N=C/c1ccccn1 | inactive: 1.01
56 | Cc1noc(C)c1NC(=O)c1cc(C)n(C(F)F)n1 | inactive: 1.07
57 | O=c1[nH]c(=S)[nH]c2nc[nH]c12 | inactive: 0.982
58 | C1COc2cc(NC(CC3C(N=C(S3)/N=C(/N)N)=O)=O)ccc2O1 (stereo not drawn) | inactive: 1.2
59 | O=S(=O)(NCC1CCCO1)c1ccc(Cl)c2ccccc12 (stereo not drawn) | inactive: 1.3
60 | Fc1ccc2c(c1)C1OCCC1C(c1ccccc1)N2 (stereo not drawn) | inactive: 0.969
61 | CCc1[nH]nc2c1C(c1ccc(Br)s1)C(C#N)=C(N)O2 (stereo not drawn) | inactive: 1.78
62 | c1ccc(-c2nc(-c3cccnc3)no2)cc1 | inactive: 0.986
63 | Cn1nc(C(F)(F)F)cc1C(=O)O | inactive: 1
64 | O=S(=O)(Nc1cc(Cl)cc(Cl)c1)c1ccc(Cl)cc1 | inactive: 1.32
65 | COc1ccc2nc(C#N)sc2c1 | inactive: 0.82
66 | S=C(NC1CCCCC1)N(C1CCCCC1)C1CCCCC1 | inactive: 1.39
67 | CCN(CC)c1nc(N)nc(-c2noc(C)n2)n1 | inactive: 1.05
68 | N#CC1=C2CCCCC2C(c2ccco2)C(C#N)(C#N)C1=O (stereo not drawn) | inactive: 1.45
69 | CC1CCCN(CC(O)CN)C1 (stereo not drawn) | inactive: 1.27

Row | Compound | cell-surface Lgr5 expression
70 | O=C(NCCN1CCOCC1)c1nc[nH]n1 | inactive: 1.04
71 | Cc1sc2ncnc(NC(C(=O)O)C(C)C)c2c1C (stereo not drawn) | inactive: 1.05
72 | Nc1ncn(CC(O)CO)c2nc(N3CCOCC3)nc1-2 (stereo not drawn) | inactive: 1.22
73 | C=CCN1C(=O)/C(=C2\SC(N3CCCCC3)=NC2=O)c2cc(Br)ccc21 | inactive: 1.91
74 | C/C(=N/NC(=O)CCCCC(=O)N/N=C(\C)c1ccc(C)o1)c1ccc(C)o1 | inactive: 0.851
75 | O=C(O)c1ccn(Cn2cnc([N+](=O)[O-])n2)n1 | inactive: 1.11
76 | NCCOc1ccc2c(c1)OCO2 | inactive: 1.34
77 | C(=N/C(/N=C/c1ccccc1)c1ccccc1)/c1ccccc1 (stereo not drawn) | inactive: 1.45
78 | Clc1ccc(/N=C\c2ccc(Br)o2)cc1Cl | inactive: 1.71
79 | Cc1ccc(/C=N/N=C(/N)c2nonc2N)o1 | inactive: 0.939
80 | N=c1cc(C2(O)CCCCC2)n2c(nc3ccccc32)s1 | inactive: 0.837
81 | NNc1ncnc2ccccc12 | inactive: 0.492
82 | CCc1ccc(C2C(C#N)=C(N)SC(N)=C2C#N)s1 | inactive: 1.41
83 | O=c1oc2ccc(O)cc2s1 | inactive: 1.58
84 | N#CC1=C(O)NC([O-])=C([n+]2ccccc2)C1c1ccc(Br)cc1 (stereo not drawn) | inactive: 1.37
85 | Cc1c(C(=O)NNC(=O)c2nn(C)cc2Br)nnn1-c1nonc1N | inactive: 1.03
86 | Cc1nn(C(C)C(=O)NN)cc1Br (stereo not drawn) | inactive: 1.23
87 | C#CCSc1nnc(N)s1 | inactive: 1.1
88 | C/N=C1\C(=N/O)C=CC2CCCCC12 (stereo not drawn) | inactive: 0.743
89 | O=C1N[C@H](C(=O)O)CS1 | inactive: 1.19
90 | CC(C)COC(=O)C(C)Sc1n[nH]c(=O)[nH]c1=O (stereo not drawn) | inactive: 1.41
91 | COCCCn1c(C23CC4CC(CC(C4)C2)C3)cn2c3c(=O)n(C)c(=O)n(C)c3nc12 | inactive: 1.38
92 | Clc1ccc2[nH]c3c(c2c1)CNCC3 | inactive: 1.29

Row | Compound | cell-surface Lgr5 expression
93 | Cc1cc(NC(=O)CSc2nnc(C)s2)no1 | inactive: 1.2
94 | C/C=C/C1OCC2(CC=C(C)CC2C)CO1 (stereo not drawn) | inactive: 1.02
95 | Cc1sc(/C=N/NC(N)=O)cc1Br | inactive: 1.31
96 | Cn1nc(C(=O)O)cc1C(F)(F)F | inactive: 1.11
97 | O=C(CSc1cccs1)Nc1nccs1 | inactive: 0.885
98 | CC1(C)CC(=O)C/C(=N/c2ccc3[nH]c(=O)[nH]c3c2)C1 | inactive: 0.983
99 | CCN1C(=O)N(CC)C(NNC(N)=S)C1NNC(N)=S (stereo not drawn) | inactive: 1.02
100 | CS(=O)(=O)Nc1ccc2c(c1)OCO2 | inactive: 1.25
101 | O=C(O)c1cc(C(=O)O)[nH]n1 | inactive: 1.13
102 | Cc1ccc(/C=N\c2sc3c(c2C#N)CCCC3)s1 | inactive: 1.32
103 | Cc1nc2sc3c(c2c(=O)o1)CCCCC3 | inactive: 1.01
104 | O=Cc1c(Cl)nc2ccccn2c1=O | active: 2.22
105 | O=S(=O)(NCC1(c2ccccc2)CC1)c1ccc2c(c1)OCCO2 | inactive: 1.42
106 | Cc1cc(O)c(C(C)(C)C)cc1S(=O)c1cc(C(C)(C)C)c(O)cc1C | inactive: 0.898
107 | O=c1c2ccccc2sc2cc3ccccc3cc12 | inactive: 1.06
108 | Clc1cccc(C2Oc3ccccc3C3CC(c4ccccc4)=NN32)c1Cl (stereo not drawn) | inactive: 0.867
109 | O=C(/C=C/N1CCOCC1)c1cccs1 | inactive: 1.22
110 | Cn1cc(CNC(=O)c2c(NC(=O)c3cc(Br)cs3)cnn2C)cn1 | inactive: 1.18
111 | CC(C)c1[nH]nc2c1C(c1ccc(Br)s1)C(C#N)=C(N)O2 (stereo not drawn) | inactive: 1.33
112 | Nc1ncc(Br)cc1[N+](=O)[O-] | inactive: 0.796
113 | CCCCOC(=O)CCc1n[nH]c(=O)[nH]c1=O | inactive: 1.22
